{"source": "patent US20210246164A1", "about": "“PEPTIDIC PROTEIN KINASE C INHIBITORS AND USES THEREOF” (UNIVERSITE DE GENEVE, priority 2016, published 2021)", "key": {"[1]": {"test_system": "primary human bronchial epithelial cell monolayers", "experiment": "Permeabilization of fluorescein-conjugated dextran (FD) across bronchial epithelial monolayers (cumulative release, Papp)", "assay_type": "cell-based", "settings": "peptide 10 μM apical, 150 minutes, vs control", "experimental": "(§1) To assess the potential effects of peptides of the invention on the permeabilization of therapeutic molecules, fluorescein-conjugated dextrans (FD) were used to as a model for assessing paracellular drug transport (apical to basolateral) across the epithelial monolayer.\n(§2) To ensure that the integrity of the monolayer was maintained during the course of the experiment, trans-epithelial electrical resistance (TEER) was measured before and after these studies, as described below.\n(§3) Mucilair™ human primary nasal and bronchial epithelial cells (Epithelix sarl, Geneva, Switzerland) were used (Huang et. al., 2013, Toxicol. in Vitro 27: 1151-1156). […]\n(§4) All peptides were used at a final concentration of 10 μM. […] The fluorescence of FD was measured in black 96-well plates using a fluorescence plate reader (BioTek Synergy Mx plate reader, BioTek Instruments GmbH, Lucerne, Switzerland), using excitation and emission wavelengths of 485 and 520 nm, respectively. […]\n(§5) Trans-epithelial electrical resistance (TEER): After addition of 200 μl of culture medium to the apical compartment of the tissue cultures, resistance was measured across cultures with an EVOMX volt-ohm-meter (World Precision Instruments UK, Stevenage) in triplicate for each time point. […]\n(§6) To assess the duration of the permeabilization effect of the peptide of the invention, apparent permeability of peptides of various lengths was evaluated as follows. […]"}, "[2]": {"test_system": "tight junctions in mouse ileum", "settings": "Jain et al., 2011; cited from earlier work"}, "[3]": {"test_system": "primary human nasal epithelial cell monolayers", "experiment": "Permeabilization of fluorescein-conjugated dextran (FD) across nasal epithelial monolayers (cumulative release, Papp)", "assay_type": "cell-based", "settings": "peptide 10 μM apical, 150 minutes, vs control", "experimental": "as §1, §2, §3, §4, §5, §6"}}, "note": "At least one peptide structure holds a part that was inferred or is arguable (an end, a ring closure or a residue). Where a SMILES comes first, the peptide text is derived from it. The star is where a group is joined. Myristoyl = CCCCCCCCCCCCCC(=O)*", "data": [{"smiles": "CCCCCCCCCCCCCC(=O)N[C@@H](CO)C(=O)N[C@H](C(=O)N[C@@H](Cc1ccc(O)cc1)C(=O)N[C@@H](CCCNC(=N)N)C(=O)N[C@@H](CCCNC(=N)N)C(=O)NCC(=O)N[C@@H](C)C(=O)N[C@@H](CCCNC(=N)N)C(=O)N[C@@H](CCCNC(=N)N)C(=O)N[C@@H](Cc1c[nH]c2ccccc12)C(=O)N[C@@H](CCCNC(=N)N)C(=O)N[C@@H](CCCCN)C(=O)N[C@@H](CC(C)C)C(=O)O)[C@@H](C)CC", "note": "[Peptide C1, reference compound] (Myristoyl-SIYRRGARRWRKL-OH; C-terminus assumed)", "values": [{"measurement": "permeability of fluorescein conjugated dextran of 4 kDa (cumulative release)", "setting": "[1]", "value": "increased the permeability of the fluorescein conjugated dextran of 4 kDa in a significant manner"}, {"measurement": "disruption of tight junctions", "setting": "[2]", "value": "able to disrupt tight junctions in mouse ileum"}, {"measurement": "permeability of fluorescein conjugated dextran of 4 kDa (cumulative release)", "setting": "[3]", "value": "increased the permeability of the fluorescein conjugated dextran of 4 kDa in a significant manner"}]}]}
